According to PMC5023729:
These are yes or no findings as the source states them, for the method shown. Binding seen in cells or lysates may run through a third protein. Some entries that bind do so weakly or less than the wild type.

Amino acid sequences for entries named in this document (tags omitted).
UniProt P97855: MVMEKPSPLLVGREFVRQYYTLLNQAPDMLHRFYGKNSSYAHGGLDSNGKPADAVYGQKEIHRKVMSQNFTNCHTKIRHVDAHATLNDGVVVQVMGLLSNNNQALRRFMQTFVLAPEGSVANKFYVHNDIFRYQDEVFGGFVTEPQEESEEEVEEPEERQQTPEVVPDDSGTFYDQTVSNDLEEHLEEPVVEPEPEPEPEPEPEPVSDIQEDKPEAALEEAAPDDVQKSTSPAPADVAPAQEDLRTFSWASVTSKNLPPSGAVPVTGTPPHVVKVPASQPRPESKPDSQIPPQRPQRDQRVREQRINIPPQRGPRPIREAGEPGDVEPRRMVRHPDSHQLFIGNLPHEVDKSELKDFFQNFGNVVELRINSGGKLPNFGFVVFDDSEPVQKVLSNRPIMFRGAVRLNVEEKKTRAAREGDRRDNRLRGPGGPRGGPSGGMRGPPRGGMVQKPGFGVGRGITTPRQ
UniProt P00441: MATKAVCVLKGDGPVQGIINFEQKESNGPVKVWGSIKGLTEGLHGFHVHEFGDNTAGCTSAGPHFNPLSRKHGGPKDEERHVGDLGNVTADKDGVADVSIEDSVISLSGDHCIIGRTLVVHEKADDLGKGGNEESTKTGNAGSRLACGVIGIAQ

Target: G3BP1, endogenous in mouse spinal cord (mouse (endogenous in spinal cord)) (UniProt P97855)
Assay: co-IP; endogenous G3BP1 precipitated with rabbit anti-G3BP1 and Protein A resin from spinal cord extracts of 60-, 90- and 125-day-old WT or G93A SOD1 transgenic mice; 1x RIPA buffer, 4 °C, 2 h; western blot

binding: binds weakly
Substance: WT human SOD1, transgene in mouse spinal cord (from UniProt P00441 1-154)
